Reference: paper PMC11328874 (2024)
No constants are given. Whether binding was seen depends on the method and setting. In cells and extracts the contact can be indirect. Some binding calls cover weakened binding; strength is not graded here. Sequences can lack the tags named with a protein.

T1: FLAG-Eya3 (human), wild type (human) (UniProt Q99504)
T1 sequence: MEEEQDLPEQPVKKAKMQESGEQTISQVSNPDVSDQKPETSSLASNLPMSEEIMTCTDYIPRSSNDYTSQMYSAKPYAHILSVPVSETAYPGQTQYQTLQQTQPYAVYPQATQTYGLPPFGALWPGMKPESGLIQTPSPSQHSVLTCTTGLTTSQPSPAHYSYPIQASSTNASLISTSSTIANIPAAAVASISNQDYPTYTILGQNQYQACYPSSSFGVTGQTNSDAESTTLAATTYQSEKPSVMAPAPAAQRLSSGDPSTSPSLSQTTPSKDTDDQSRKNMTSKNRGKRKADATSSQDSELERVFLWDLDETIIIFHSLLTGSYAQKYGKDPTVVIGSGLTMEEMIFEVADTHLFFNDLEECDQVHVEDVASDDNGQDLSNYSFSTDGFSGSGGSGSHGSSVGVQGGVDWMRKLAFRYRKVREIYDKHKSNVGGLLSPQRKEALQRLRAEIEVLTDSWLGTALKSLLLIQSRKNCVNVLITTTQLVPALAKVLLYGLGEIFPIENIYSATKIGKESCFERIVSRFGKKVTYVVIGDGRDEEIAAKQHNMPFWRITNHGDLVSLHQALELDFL

T2: FLAG-Eya2 (human), wild type (human) (UniProt O00167)
T2 sequence: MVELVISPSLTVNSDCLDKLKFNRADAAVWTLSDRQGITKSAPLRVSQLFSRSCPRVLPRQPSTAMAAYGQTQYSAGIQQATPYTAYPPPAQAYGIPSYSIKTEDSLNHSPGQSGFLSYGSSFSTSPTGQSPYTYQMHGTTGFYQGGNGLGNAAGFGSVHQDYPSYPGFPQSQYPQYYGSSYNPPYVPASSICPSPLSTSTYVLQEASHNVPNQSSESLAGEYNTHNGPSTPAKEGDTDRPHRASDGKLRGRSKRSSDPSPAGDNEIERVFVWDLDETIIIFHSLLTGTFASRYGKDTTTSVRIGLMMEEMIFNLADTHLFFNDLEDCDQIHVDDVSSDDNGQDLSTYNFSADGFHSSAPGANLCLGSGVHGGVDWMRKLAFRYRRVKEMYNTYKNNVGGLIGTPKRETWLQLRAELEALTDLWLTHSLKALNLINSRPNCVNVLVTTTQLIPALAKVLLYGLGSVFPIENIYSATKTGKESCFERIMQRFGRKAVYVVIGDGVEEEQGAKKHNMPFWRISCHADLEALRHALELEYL

T3: FLAG-Eya2 Δ32 to 54 (human) (UniProt O00167)
T3 sequence: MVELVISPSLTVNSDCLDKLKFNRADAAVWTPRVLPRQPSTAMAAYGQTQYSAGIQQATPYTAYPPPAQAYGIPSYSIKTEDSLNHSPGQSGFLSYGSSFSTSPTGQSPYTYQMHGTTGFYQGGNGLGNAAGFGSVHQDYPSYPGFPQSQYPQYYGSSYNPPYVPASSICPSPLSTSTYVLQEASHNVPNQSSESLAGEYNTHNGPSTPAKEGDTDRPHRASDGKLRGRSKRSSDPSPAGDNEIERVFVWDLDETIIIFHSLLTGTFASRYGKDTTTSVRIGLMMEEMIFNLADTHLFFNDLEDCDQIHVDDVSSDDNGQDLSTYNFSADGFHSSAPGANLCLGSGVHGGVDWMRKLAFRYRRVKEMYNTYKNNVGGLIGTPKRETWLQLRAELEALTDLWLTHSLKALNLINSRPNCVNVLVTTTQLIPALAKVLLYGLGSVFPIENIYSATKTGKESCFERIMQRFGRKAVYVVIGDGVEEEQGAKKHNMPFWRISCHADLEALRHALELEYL

T4: FLAG-Eya2 Δ32 to 99 (human) (UniProt O00167)
T4 sequence: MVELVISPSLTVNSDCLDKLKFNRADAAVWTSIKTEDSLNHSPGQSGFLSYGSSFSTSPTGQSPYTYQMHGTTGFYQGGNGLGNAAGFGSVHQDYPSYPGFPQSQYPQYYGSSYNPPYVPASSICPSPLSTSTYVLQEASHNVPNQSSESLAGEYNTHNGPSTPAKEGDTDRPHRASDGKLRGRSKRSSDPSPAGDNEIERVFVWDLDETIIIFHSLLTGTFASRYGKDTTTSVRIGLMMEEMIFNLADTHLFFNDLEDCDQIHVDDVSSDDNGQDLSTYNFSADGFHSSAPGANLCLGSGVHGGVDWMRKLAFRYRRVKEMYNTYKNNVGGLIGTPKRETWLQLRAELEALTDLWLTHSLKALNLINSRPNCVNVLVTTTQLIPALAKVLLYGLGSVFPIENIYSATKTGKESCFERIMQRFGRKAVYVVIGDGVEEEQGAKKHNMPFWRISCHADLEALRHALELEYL


Tests used:
Assay in all cases: co-IP; HEK cells cotransfected with FLAG-Eya3 or FLAG-Eya2 (wild type or deletions) and HA-B55α (wild type or mutants); FLAG gel in lysate at 4 °C overnight, eluted with FLAG peptide; Western blot with α-FLAG and α-HA
[1] = molecular target: T1, FLAG-Eya3 (human), wild type (human)
[2] = molecular target: T2, FLAG-Eya2 (human), wild type (human)
[3] = molecular target: T3, FLAG-Eya2 Δ32 to 54 (human)
[4] = molecular target: T4, FLAG-Eya2 Δ32 to 99 (human)

binding [1] | binding [2] | binding [3] | binding [4] | Binder
binds |  |  |  | HA-B55α K48E (protein, UniProt P63151 1-447) MAGAGGGNDIQWCFSQVKGAVDDDVAEADIISTVEFNHSGELLATGDEGGRVVIFQQEQENKIQSHSRGEYNVYSTFQSHEPEFDYLKSLEIEEKINKIRWLPQKNAAQFLLSTNDKTIKLWKISERDKRPEGYNLKEEDGRYRDPTTVTTLRVPVFRPMDLMVEASPRRIFANAHTYHINSISINSDYETYLSADDLRINLWHLEITDRSFNIVDIKPANMEELTEVITAAEFHPNSCNTFVYSSSKGTIRLCDMRASALCDRHSKLFEEPEDPSNRSFFSEIISSISDVKFSHSGRYMMTRDYLSVKIWDLNMENRPVETYQVHEYLRSKLCSLYENDCIFDKFECCWNGSDSVVMTGSYNNFFRMFDRNTKRDITLEASRENNKPRTVLKPRKVCASGKRKKDEISVDSLDFNKKILHTAWHPKENIIAVATTNNLYIFQDKVN
binds |  |  |  | HA-B55α E27R (protein, UniProt P63151 1-447) MAGAGGGNDIQWCFSQVKGAVDDDVARADIISTVEFNHSGELLATGDKGGRVVIFQQEQENKIQSHSRGEYNVYSTFQSHEPEFDYLKSLEIEEKINKIRWLPQKNAAQFLLSTNDKTIKLWKISERDKRPEGYNLKEEDGRYRDPTTVTTLRVPVFRPMDLMVEASPRRIFANAHTYHINSISINSDYETYLSADDLRINLWHLEITDRSFNIVDIKPANMEELTEVITAAEFHPNSCNTFVYSSSKGTIRLCDMRASALCDRHSKLFEEPEDPSNRSFFSEIISSISDVKFSHSGRYMMTRDYLSVKIWDLNMENRPVETYQVHEYLRSKLCSLYENDCIFDKFECCWNGSDSVVMTGSYNNFFRMFDRNTKRDITLEASRENNKPRTVLKPRKVCASGKRKKDEISVDSLDFNKKILHTAWHPKENIIAVATTNNLYIFQDKVN
binds | binds | binds | binds | HA-tagged B55α (HA-B55α), wild type (protein, UniProt P63151 1-447) MAGAGGGNDIQWCFSQVKGAVDDDVAEADIISTVEFNHSGELLATGDKGGRVVIFQQEQENKIQSHSRGEYNVYSTFQSHEPEFDYLKSLEIEEKINKIRWLPQKNAAQFLLSTNDKTIKLWKISERDKRPEGYNLKEEDGRYRDPTTVTTLRVPVFRPMDLMVEASPRRIFANAHTYHINSISINSDYETYLSADDLRINLWHLEITDRSFNIVDIKPANMEELTEVITAAEFHPNSCNTFVYSSSKGTIRLCDMRASALCDRHSKLFEEPEDPSNRSFFSEIISSISDVKFSHSGRYMMTRDYLSVKIWDLNMENRPVETYQVHEYLRSKLCSLYENDCIFDKFECCWNGSDSVVMTGSYNNFFRMFDRNTKRDITLEASRENNKPRTVLKPRKVCASGKRKKDEISVDSLDFNKKILHTAWHPKENIIAVATTNNLYIFQDKVN
binds |  |  |  | HA-B55α D197K (protein, UniProt P63151 1-447) MAGAGGGNDIQWCFSQVKGAVDDDVAEADIISTVEFNHSGELLATGDKGGRVVIFQQEQENKIQSHSRGEYNVYSTFQSHEPEFDYLKSLEIEEKINKIRWLPQKNAAQFLLSTNDKTIKLWKISERDKRPEGYNLKEEDGRYRDPTTVTTLRVPVFRPMDLMVEASPRRIFANAHTYHINSISINSDYETYLSADKLRINLWHLEITDRSFNIVDIKPANMEELTEVITAAEFHPNSCNTFVYSSSKGTIRLCDMRASALCDRHSKLFEEPEDPSNRSFFSEIISSISDVKFSHSGRYMMTRDYLSVKIWDLNMENRPVETYQVHEYLRSKLCSLYENDCIFDKFECCWNGSDSVVMTGSYNNFFRMFDRNTKRDITLEASRENNKPRTVLKPRKVCASGKRKKDEISVDSLDFNKKILHTAWHPKENIIAVATTNNLYIFQDKVN
